Results from US20230018989A1, “INHIBITING THE RNA […] METTL3 OR ITS INTERACTION WITH EIF3H TO […] ONCOGENE TRANSLATION AND TUMORIGENESIS” (Children's Medical Center Corporation, priority 2019, published 2023).
Results are given in words; binding and its absence hold for the method and conditions named. Binding seen in cells or lysates may run through a third protein. Some results given as binding are weak or reduced against the parent protein; the word gives no strength.

Chains of the proteins cited; added tags and fusions are not shown. Lines headed by an entry give the natural chain unless they say otherwise; changes in a name come on top.
UniProt O15372: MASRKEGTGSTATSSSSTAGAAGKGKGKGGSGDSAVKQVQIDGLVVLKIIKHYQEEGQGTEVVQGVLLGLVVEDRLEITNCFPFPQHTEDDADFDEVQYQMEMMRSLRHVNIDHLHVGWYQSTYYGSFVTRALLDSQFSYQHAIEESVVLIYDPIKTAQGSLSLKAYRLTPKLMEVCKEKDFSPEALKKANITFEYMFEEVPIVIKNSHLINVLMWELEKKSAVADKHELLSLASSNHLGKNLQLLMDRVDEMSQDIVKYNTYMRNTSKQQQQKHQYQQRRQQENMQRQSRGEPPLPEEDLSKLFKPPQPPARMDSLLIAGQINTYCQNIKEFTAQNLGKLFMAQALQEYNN
UniProt Q86U44: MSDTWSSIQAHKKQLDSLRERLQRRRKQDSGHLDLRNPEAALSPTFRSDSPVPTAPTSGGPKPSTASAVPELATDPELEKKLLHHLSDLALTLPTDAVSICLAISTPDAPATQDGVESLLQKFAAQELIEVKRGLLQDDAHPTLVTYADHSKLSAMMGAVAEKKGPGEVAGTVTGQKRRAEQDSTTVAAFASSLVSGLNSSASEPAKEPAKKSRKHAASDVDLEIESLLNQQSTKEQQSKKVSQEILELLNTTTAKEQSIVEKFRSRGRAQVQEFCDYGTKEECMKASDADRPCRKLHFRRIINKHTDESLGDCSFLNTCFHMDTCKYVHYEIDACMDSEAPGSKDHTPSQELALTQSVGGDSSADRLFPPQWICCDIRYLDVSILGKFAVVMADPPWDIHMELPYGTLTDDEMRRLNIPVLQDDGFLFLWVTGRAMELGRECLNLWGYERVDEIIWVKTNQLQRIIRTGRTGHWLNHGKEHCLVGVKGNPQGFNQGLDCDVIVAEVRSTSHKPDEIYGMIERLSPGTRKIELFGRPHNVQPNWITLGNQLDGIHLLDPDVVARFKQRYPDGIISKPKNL

What was measured:
[1] = target: GST-eIF3h (29-222) (human) (UniProt O15372); assay: GST pull-down of eIF3h deletion mutants; co-purified His-METTL3 shown by Western blot
[2] = target: GST-eIF3h (N-terminal GST-fused human eIF3h, full length) (human) (UniProt O15372); assay: GST pull-down (refers back to FIG. 5E)
[3] = target: GST-eIF3h (N-terminal GST-fused human eIF3h, full length) (human) (UniProt O15372); assay: Far-Western and GST pull-down (FIG. 5 legend title)
[4] = target: GST-eIF3h (N-terminal GST-fused human eIF3h, full length) (human) (UniProt O15372); assay: in vitro GST pull-down with purified recombinant proteins, Western blot

| binding [1] | binding [2] | binding [3] | binding [4] | Substance |
| --- | --- | --- | --- | --- |
| binds | – | – | – | recombinant His-tagged human METTL3 (full-length) (from UniProt Q86U44 1-580) (enzyme) |
| – | binds | binds | binds | recombinant His-tagged human METTL3 (1-200) (from UniProt Q86U44 1-200) |
